Results taken from PubChem BioAssay AID1671190 (National Center for Advancing Translational Sciences (NCATS), 2021).
Values joined by “and” are separate entries in the source; they are usually repeats but may differ in a detail not shown here. Identical values can stand only once. About 6,100 (1.1%) of roughly 580,000 compounds were called active. The inconclusive results got no clear call from the source; some entries with a clear call stand among them for comparison. Calls come from the whole dose curve; as a rule, active = well fitted inhibition curve with a large enough effect; inconclusive = small, poorly fitted or top-dose-only effect, or another doubt; inactive = no such curve, though single readings can be large or run the other way. Potencies of inconclusive entries are doubtful fits and often do not repeat.

Protein sequences, listed by entry. Tags and fused reporters are not part of them. Lines headed by an entry give the natural chain unless they say otherwise; changes in a name come on top.
UniProt P18054: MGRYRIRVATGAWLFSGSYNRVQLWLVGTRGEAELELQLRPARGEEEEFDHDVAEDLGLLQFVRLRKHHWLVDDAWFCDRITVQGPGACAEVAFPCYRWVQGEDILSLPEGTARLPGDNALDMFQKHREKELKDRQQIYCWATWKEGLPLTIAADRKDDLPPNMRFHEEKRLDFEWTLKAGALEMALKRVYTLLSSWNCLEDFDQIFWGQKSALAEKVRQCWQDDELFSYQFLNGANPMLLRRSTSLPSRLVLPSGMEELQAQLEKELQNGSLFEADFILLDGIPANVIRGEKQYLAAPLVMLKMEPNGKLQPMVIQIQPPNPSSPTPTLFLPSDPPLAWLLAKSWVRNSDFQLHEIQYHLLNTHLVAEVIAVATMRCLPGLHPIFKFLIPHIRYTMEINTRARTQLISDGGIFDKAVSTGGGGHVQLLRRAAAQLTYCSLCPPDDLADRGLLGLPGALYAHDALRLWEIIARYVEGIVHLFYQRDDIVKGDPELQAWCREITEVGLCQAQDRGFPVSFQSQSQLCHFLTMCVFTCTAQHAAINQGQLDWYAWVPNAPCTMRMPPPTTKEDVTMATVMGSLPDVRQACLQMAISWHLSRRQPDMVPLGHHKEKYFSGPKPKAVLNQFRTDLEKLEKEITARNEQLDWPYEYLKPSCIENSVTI

The compounds below were run against Polyunsaturated fatty acid lipoxygenase ALOX12 (Homo sapiens) (UniProt P18054) (assay: Primary qHTS assay for inhibitors of human arachidonate 12S-lipoxygenase (ALOX12): Round 2). Conditions: purified 12hLO, xylenol orange hydroperoxide absorbance; series mostly up to 108 µM.
In short: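 Purified human 12hLO (150 nM final) in 25 mM Hepes, 0.01% Triton X-100, pH 7.0 was preincubated 15 min at room temperature with compound. Then 40 uM arachidonic acid was added, 30 min. Hydroperoxide was read by Fe-XO absorbance ratio 573/405 nm.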
Potency is the fitted concentration of half-maximal effect.

Row | SMILES | Potency
1 | O=C(CC(=O)N/N=C/c1ccccc1[N+](=O)[O-])N/N=C/c1ccccc1[N+](=O)[O-] | inactive
2 | Cc1c(NC(=O)c2c([N+](=O)[O-])cnn2C)c(=O)n(-c2ccccc2)n1C | inconclusive: 126 µM [inhibitor, partial curve, poor fit]
3 | Cc1ccc(NC(=O)c2noc(C(C)C)c2[N+](=O)[O-])cc1 | inactive
4 | CC(C(=O)NC1CCCC1)N1CCN(Cc2ccccc2)CC1 (stereo not given) | inconclusive: 0.447 µM [inhibitor, full curve, poor fit]
5 | COC(=O)NC(NC(=O)OC)c1ccc(Br)cc1 | inconclusive: 126 µM [inhibitor, partial curve, poor fit]
6 | COCCN(C(=O)c1c(C)noc1C)c1c(N)n(CC(C)C)c(=O)[nH]c1=O | inconclusive: 100 µM [inhibitor, single point]
7 | CC(C)Oc1ccc(CNC(=O)C2Cn3cccc3C(=O)N2Cc2ccccc2)cc1 (stereo not given) | inactive
8 | CCN(CC)c1ccc(NC(=O)COc2ccc(C)cc2)cc1 | inconclusive: 10 µM [inhibitor, partial curve, poor fit]
9 | COc1ncccc1-c1cnc2[nH]cc(CC(=O)Nc3cccnc3)c2c1 | inactive
10 | N=c1oc2cc(O)ccc2cc1C(=O)Nc1ccc(Cl)cc1 | inactive
11 | O=C(c1ccccc1)c1ccc(OCCOCCN2CCN(Cc3ccccc3)CC2)cc1 | inconclusive: 0.355 µM [inhibitor, full curve, poor fit]
12 | C#CCNC(=O)C[C@@H]1C[C@@]2(C(=O)OCC)CCC=C2N(Cc2ccco2)C1=O | inconclusive: 126 µM [inhibitor, single point]
13 | Cc1ccc(S(=O)(=O)N2[C@@H](c3ccc(Cl)cc3)C(C(=O)O)=CC[C@H]2c2ccc(C(C)C)cc2)cc1 | inconclusive: 50.1 µM [inhibitor, partial curve, poor fit]
14 | NC(=O)CC(NC(=O)c1cccc(Br)c1)c1ccc(N2CCN(c3ccccn3)CC2)c([N+](=O)[O-])c1 (stereo not given) | inconclusive: 63.1 µM [inhibitor, partial curve, poor fit]
15 | CCN(CC)CCn1c2ccccc2c2nc(C)sc21 | inconclusive: 44.7 µM [inhibitor, partial curve, poor fit]
16 | Cc1cc(=O)oc2cc(OCC(=O)NCCc3c[nH]c4ccc(F)cc34)ccc12 | inactive
17 | Cc1ccc(-c2nnn(CCC(=O)Nc3sc4c(c3C#N)CCCCC4)n2)cc1 | inconclusive: 1.12 µM [inhibitor, full curve, poor fit]
18 | COc1ccc(C)cc1Nc1n[n+](-c2ccccc2)c(-c2c(OC)ccc3ccccc23)s1 | inconclusive: 44.7 µM [inhibitor, partial curve, poor fit]
19 | O=C(CSc1nccc(C(F)(F)F)n1)c1ccccc1 | inconclusive: 50.1 µM [inhibitor, partial curve, poor fit]
20 | CCN(CCCNC(=O)CSc1cc(=O)n(C)c2ccccc12)c1ccccc1 | inactive

Row | SMILES | Potency
21 | O=C1C(Cl)=C(N2CCN(Cc3ccccc3)CC2)C(=O)N1Cc1ccccc1 | inconclusive: 35.5 µM [inhibitor, partial curve]
22 | Cc1cc(NC(=S)NCCc2ccccc2)ccc1Br | inconclusive: 35.5 µM [inhibitor, partial curve, poor fit]
23 | Cc1cc(C)c(NC(=O)C(C)n2c(=O)cc(C)c3c(C)nn(-c4ccccc4)c32)c(C)c1 (stereo not given) | inactive
24 | CSc1cccc(NC(=O)CNc2ccccc2C(=O)NC2CC2)c1 | inconclusive: 44.7 µM [inhibitor, partial curve, poor fit]
25 | CCc1cc(C(=O)NC2CCCc3c2cnn3-c2cccc(C)c2C)n(C)n1 (stereo not given) | inactive
26 | COc1ccc(C2CC(=O)Oc3c2c(=O)[nH]c2ccccc32)cc1OC (stereo not given) | inactive
27 | O=C(CSCc1ccccc1)N1CCN(C(=O)c2ccco2)CC1 | inconclusive: 2 µM [inhibitor, full curve, poor fit]
28 | Cc1ccc2cc(CN(CC3CCCO3)S(=O)(=O)c3ccc4c(c3)OCCO4)c(=O)[nH]c2c1C (stereo not given) | inactive
29 | Cc1cc(NC(=O)CSc2nnnn2-c2cccc(C)c2C)n(-c2ccccc2)n1 | inconclusive: 44.7 µM [inhibitor, partial curve, poor fit]
30 | O=C1NCc2ccccc2CC12CCN(Cc1cccc(F)c1)C2 (stereo not given) | inconclusive: 63.1 µM [inhibitor, partial curve, poor fit]
31 | O=C(NC[C@H]1CCCO1)c1cccc2c1C(=O)c1ccc(-c3ccc(F)cc3OCc3ccccc3)cc1S2(=O)=O | inconclusive: 44.7 µM [inhibitor, partial curve, poor fit]
32 | O=S(=O)(Nc1cccc2c1ccc1cccn12)c1cccs1 | inconclusive: 2 µM [inhibitor, full curve]
33 | CC1=C(C(=O)N(C(C)C)C(C)C)CC(CC(=O)NC(c2ccccc2)c2ccccc2)C(=O)N1CCC1=CCCCC1 (stereo not given) | inconclusive: 44.7 µM [inhibitor, single point]
34 | O=C1/C(=C\c2ccco2)SC(=S)N1c1ccc(O)cc1 | inconclusive: 44.7 µM [inhibitor, partial curve, poor fit]
35 | OCCN1CCN(CC(O)COCc2ccc3c(c2)OCO3)CC1 (stereo not given) | inconclusive: 31.6 µM [inhibitor, partial curve, poor fit]
36 | CC(C)[C@H]1CN(CCS(C)(=O)=O)C[C@@H]1NC(=O)CCn1cncn1 | inconclusive: 31.6 µM [inhibitor, single point]
37 | Cc1ccc(S(=O)(=O)C=C(c2ccccc2)c2ccccc2)cc1 | inactive
38 | CN(C)c1ccc(Nc2cc(Cl)ncn2)cc1 | inconclusive: 100 µM [inhibitor, single point]
39 | Oc1cc(O)c2c(c1)O[C@H](c1ccc(O)c(O)c1)[C@@H](O)C2 | inconclusive: 50.1 µM [inhibitor, partial curve] and inconclusive: 1.41 µM [inhibitor, full curve, poor fit]
40 | Cc1ccccc1OCC(O)Cn1c(SC(C)C)nc2c1c(=O)[nH]c(=O)n2C (stereo not given) | inconclusive: 1.58 µM [inhibitor, full curve, poor fit]
